Data reported in article doi:10.1101/2025.07.16.665194.
Results are given in words; binding and its absence hold for the method and conditions named. In cells and extracts the contact can be indirect. Some results given as binding are weak or reduced against the parent protein; the word gives no strength. Sequences can lack the tags named with a protein.

The chains behind the UniProt entries cited, without tags or fusion partners. Residues count along the entry.
UniProt Q68EF4, residues 33-912: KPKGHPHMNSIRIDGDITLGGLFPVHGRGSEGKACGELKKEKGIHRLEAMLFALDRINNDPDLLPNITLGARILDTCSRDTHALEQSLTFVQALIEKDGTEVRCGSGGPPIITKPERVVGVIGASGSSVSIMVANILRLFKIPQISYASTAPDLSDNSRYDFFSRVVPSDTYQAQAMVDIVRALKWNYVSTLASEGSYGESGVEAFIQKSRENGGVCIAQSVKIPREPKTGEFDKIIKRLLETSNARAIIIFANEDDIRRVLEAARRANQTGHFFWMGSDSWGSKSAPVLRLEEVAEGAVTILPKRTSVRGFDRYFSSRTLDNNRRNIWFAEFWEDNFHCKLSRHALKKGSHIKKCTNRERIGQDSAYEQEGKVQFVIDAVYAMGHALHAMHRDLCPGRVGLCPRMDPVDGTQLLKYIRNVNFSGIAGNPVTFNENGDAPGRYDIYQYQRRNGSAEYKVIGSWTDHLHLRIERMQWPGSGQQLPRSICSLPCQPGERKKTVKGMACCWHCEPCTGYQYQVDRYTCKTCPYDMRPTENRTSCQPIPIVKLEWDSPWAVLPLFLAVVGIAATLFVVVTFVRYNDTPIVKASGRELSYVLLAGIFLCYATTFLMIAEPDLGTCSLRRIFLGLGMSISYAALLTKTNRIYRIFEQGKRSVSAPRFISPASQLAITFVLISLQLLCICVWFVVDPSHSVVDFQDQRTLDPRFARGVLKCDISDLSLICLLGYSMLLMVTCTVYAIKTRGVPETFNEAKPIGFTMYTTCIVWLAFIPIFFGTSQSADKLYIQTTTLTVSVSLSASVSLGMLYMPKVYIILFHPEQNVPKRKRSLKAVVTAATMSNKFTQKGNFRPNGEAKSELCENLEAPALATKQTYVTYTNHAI
UniProt Q3UVX5, residues 19-1203: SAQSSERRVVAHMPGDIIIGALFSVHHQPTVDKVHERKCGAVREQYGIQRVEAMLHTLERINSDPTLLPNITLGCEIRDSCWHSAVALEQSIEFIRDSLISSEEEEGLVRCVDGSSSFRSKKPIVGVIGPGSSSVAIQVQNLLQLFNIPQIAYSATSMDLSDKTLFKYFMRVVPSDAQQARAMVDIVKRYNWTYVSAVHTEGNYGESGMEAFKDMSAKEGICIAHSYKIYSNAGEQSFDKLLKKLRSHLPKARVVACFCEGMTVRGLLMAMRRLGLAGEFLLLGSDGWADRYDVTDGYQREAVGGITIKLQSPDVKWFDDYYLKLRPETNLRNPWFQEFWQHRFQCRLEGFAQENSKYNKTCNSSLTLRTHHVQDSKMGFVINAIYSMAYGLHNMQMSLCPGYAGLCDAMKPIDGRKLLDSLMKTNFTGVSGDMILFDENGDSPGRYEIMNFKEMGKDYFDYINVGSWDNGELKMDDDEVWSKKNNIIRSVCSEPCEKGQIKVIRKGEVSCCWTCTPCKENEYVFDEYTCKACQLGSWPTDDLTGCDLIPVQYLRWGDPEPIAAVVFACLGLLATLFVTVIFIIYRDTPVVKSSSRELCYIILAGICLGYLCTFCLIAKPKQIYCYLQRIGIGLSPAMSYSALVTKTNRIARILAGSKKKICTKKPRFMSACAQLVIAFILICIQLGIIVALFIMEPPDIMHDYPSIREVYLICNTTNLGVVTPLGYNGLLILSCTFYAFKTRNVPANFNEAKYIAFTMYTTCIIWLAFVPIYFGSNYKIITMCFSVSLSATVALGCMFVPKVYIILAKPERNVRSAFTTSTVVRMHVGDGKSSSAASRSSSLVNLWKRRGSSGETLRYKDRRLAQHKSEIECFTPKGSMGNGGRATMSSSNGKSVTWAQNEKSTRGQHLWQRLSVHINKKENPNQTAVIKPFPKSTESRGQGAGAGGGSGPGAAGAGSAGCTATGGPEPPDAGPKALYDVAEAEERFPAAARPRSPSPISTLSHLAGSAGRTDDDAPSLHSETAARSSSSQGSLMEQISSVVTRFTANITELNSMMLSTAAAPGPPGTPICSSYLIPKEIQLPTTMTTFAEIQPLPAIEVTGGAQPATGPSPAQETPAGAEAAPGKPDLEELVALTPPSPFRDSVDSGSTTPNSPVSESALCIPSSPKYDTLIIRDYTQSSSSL

What was measured:
Assay in all cases: co-IP; HEK293T cells overexpressing Grm4-DYDDK or Grm5-DYDDK together with V5-tagged NPDC1; V5 beads, and in reverse DYDDK beads; anti-V5 and anti-DYDDK blots
[1] = biological target: T1, Neuronal Proliferation, Differentiation and Control 1 (NPDC1), V5-tagged (human) (UniProt Q9NQX5)
T1 sequence: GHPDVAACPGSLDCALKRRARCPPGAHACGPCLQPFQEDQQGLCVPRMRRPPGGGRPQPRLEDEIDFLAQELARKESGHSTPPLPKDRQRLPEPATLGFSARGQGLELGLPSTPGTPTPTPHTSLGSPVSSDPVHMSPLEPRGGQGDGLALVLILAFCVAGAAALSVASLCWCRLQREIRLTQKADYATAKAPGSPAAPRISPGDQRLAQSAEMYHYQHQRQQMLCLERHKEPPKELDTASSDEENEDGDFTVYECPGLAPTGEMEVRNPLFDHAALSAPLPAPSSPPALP

Grm4-DYDDK = Grm4-DYDDK (UniProt Q68EF4)
Grm5-DYDDK = Grm5-DYDDK (UniProt Q3UVX5)

Molecule: Grm5-DYDDK (from UniProt Q3UVX5 19-1203) (receptor)
- binding [1]: no binding

B1: Neuronal Proliferation, Differentiation and Control 1 (NPDC1), V5-tagged (receptor, UniProt Q9NQX5 35-325)
chain: GHPDVAACPGSLDCALKRRARCPPGAHACGPCLQPFQEDQQGLCVPRMRRPPGGGRPQPRLEDEIDFLAQELARKESGHSTPPLPKDRQRLPEPATLGFSARGQGLELGLPSTPGTPTPTPHTSLGSPVSSDPVHMSPLEPRGGQGDGLALVLILAFCVAGAAALSVASLCWCRLQREIRLTQKADYATAKAPGSPAAPRISPGDQRLAQSAEMYHYQHQRQQMLCLERHKEPPKELDTASSDEENEDGDFTVYECPGLAPTGEMEVRNPLFDHAALSAPLPAPSSPPALP
- binding (Grm4-DYDDK): binds
- binding (Grm5-DYDDK): no binding
